For 5 molecules, binding results are on record in patent US20070281326A1 (QUARK PHARMACEUTICALS, published 2007).

Chains of the proteins cited; added tags and fusions are not shown. Lines headed by an entry give the natural chain unless they say otherwise; changes in a name come on top.
UniProt P49815: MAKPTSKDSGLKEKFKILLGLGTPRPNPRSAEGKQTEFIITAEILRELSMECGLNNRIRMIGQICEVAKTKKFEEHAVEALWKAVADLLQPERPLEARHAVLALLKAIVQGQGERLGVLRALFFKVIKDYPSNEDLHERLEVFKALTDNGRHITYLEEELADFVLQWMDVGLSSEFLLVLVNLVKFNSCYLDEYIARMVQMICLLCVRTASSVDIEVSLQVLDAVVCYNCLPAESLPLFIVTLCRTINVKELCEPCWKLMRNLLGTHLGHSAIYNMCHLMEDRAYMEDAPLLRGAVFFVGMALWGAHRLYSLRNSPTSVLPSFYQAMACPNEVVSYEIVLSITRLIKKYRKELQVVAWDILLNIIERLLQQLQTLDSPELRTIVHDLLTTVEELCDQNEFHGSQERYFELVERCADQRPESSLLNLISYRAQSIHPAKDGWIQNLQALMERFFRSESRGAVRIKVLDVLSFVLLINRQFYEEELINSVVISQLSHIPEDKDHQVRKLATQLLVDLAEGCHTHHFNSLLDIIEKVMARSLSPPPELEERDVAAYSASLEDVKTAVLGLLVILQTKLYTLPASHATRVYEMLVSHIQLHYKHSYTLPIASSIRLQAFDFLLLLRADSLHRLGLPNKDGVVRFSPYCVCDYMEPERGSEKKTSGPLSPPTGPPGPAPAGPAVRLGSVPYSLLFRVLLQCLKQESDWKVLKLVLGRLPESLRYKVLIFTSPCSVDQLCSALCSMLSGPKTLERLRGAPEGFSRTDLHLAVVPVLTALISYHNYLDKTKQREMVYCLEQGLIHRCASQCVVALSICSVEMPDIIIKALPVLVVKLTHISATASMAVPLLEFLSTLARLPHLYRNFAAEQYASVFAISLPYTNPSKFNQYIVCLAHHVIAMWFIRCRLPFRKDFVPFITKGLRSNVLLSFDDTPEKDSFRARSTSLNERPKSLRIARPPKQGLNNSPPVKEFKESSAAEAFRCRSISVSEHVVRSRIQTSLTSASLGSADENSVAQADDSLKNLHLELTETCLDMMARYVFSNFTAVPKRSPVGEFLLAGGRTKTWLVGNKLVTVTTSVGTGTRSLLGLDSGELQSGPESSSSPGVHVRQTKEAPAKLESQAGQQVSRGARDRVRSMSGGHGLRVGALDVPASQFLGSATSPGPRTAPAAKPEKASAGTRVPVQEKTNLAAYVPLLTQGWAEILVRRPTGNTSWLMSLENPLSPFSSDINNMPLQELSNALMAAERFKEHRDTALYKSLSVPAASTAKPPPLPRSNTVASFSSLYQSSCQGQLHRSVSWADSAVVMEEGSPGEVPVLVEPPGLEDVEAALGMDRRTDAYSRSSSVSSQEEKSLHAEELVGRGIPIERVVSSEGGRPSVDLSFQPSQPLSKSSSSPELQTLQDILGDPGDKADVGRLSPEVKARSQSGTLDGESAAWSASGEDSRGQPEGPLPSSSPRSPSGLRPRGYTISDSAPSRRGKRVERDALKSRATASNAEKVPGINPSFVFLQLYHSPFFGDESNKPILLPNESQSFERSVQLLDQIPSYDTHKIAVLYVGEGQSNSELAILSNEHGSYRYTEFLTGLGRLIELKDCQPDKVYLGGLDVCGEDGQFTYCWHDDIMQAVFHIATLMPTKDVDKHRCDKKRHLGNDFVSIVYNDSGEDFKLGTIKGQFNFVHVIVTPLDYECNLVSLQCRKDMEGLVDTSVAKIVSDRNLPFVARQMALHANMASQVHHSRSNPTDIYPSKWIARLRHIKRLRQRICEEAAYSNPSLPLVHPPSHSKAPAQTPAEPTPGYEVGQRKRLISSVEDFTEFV

Results are given in words; binding and its absence hold for the method and conditions named. For some of these results: Binding seen in cells or lysates may run through a third protein. Some binding calls cover weakened binding; strength is not graded here. For some of these results: Tags and fused reporters may be left off the sequences shown.

Assay [1] has as its target T1, TSC2 (human, UniProt P49815 1-1807, limits assumed).
T1 construct: TSC2 without a stated tag, endogenous or expressed from transfected cDNA in 293T cell extracts; also called tuberin; endogenous TSC2
Description: co-IP with anti-FLAG from 293T extract.

Assay [2] addresses T1, TSC2. Kind of assay: pull-down from extract.
For assay [3], the target named is T1, TSC2. Description: pull-down from cell extract with 6XHis baits (FIG. 13).
Assay [4] deals with T2, HA-SV5-full length hRTP801 (human), Q9NX09.
T2 chain: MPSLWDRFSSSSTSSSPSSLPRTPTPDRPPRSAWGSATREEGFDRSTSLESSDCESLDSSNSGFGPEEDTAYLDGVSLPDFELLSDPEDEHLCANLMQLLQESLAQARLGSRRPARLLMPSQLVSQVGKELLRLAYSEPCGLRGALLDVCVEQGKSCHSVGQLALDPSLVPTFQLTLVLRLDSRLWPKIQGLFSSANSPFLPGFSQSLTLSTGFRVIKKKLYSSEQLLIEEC
Description: HTRF on 293T HEK cytosolic extract (FIG. 23). Conditions: remark: other sources report otherwise. On the technique in general: Time-resolved FRET reads energy transfer from a long-lived donor to a nearby acceptor.

Assay [5] addresses T2, HA-SV5-full length hRTP801 (human), …. Kind of assay: co-IP with M2 anti-FLAG resin from CoCl2-treated 293T HEK extract (FIG. 21). The note with it: remark: other sources report otherwise.
For assay [6] the target is unchanged. Description: co-IP with anti-FLAG resin from 293T extract (FIG. 21). Conditions: remark: other sources report otherwise.
Assay [7] addresses T3, hRTP801 (human), Q9NX09.
T3 chain: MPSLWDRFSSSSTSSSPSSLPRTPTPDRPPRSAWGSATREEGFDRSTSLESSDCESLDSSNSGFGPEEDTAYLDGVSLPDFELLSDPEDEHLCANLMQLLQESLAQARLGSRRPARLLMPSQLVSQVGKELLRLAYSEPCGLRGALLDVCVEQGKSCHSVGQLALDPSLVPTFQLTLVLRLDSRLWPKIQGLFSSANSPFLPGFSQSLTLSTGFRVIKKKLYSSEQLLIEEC
Kind of assay: bacterial two-hybrid system. The note with it: remark: other sources report otherwise.

Assay [8] addresses T3, hRTP801 (human), Q9NX09. Kind of assay: summary of Example 6. The note with it: remark: other sources report otherwise.

B1: FLAG-hRTP801-L (protein, human, UniProt Q96D03 1-193, looked up, not shown: small tags and cut ends)
chain: MVATGSLSSKNPASISELLDCGYHPESLLSDFDYWDYVVPEPNLNEVIFEESTCQNLVKMLENCLSKSKQTKLGCSKVLVPEKLTQRIAQDVLRLSSTEPCGLRGCVMHVNLEIENVCKKLDRIVCDSSVVPTFELTLVFKQENCSWTSFRDFFFSRGRFSSGFRRTLILSSGFRLVKKKLYSLIGTTVIEGS
Regarding B1, in the assay with TSC2 [1], the binding entry is on record as “binds”.

B2: 6XHis-hRTP801 C-fragment (protein, not shown: small tags and cut ends)
chain: DEHLCANLMQLLQESLAQARLGSRRPARLLMPSQLVSQVGKELLRLAYSEPCGLRGALLDVCVEQGKSCHSVGQLALDPSLVPTFQLTLVLRLDSRLWPKIQGLFSSANSPFLPGFSQSLTLSTGFRVIKKKLYSSEQLLIEEC
Turning to B2, the binding entry with TSC2 [2] and with TSC2 [3] was “binds” throughout.

B3: FLAG-hRTP801, Q9NX09 1-232 (protein, not shown: small tags and cut ends)
chain: MPSLWDRFSSSSTSSSPSSLPRTPTPDRPPRSAWGSATREEGFDRSTSLESSDCESLDSSNSGFGPEEDTAYLDGVSLPDFELLSDPEDEHLCANLMQLLQESLAQARLGSRRPARLLMPSQLVSQVGKELLRLAYSEPCGLRGALLDVCVEQGKSCHSVGQLALDPSLVPTFQLTLVLRLDSRLWPKIQGLFSSANSPFLPGFSQSLTLSTGFRVIKKKLYSSEQLLIEEC
B3: the binding result in assay [4], in assay [5] and in assay [6] was “binds” in each case.

B4: 6XHis-hRTP801 (protein, not shown: small tags and cut ends)
chain: MPSLWDRFSSSSTSSSPSSLPRTPTPDRPPRSAWGSATREEGFDRSTSLESSDCESLDSSNSGFGPEEDTAYLDGVSLPDFELLSDPEDEHLCANLMQLLQESLAQARLGSRRPARLLMPSQLVSQVGKELLRLAYSEPCGLRGALLDVCVEQGKSCHSVGQLALDPSLVPTFQLTLVLRLDSRLWPKIQGLFSSANSPFLPGFSQSLTLSTGFRVIKKKLYSSEQLLIEEC
For the molecule B4, the binding entry with TSC2 [2] and in the assay with TSC2 [3] was “binds” in each case.

B5: hRTP801, Q9NX09 1-232 (protein)
chain: MPSLWDRFSSSSTSSSPSSLPRTPTPDRPPRSAWGSATREEGFDRSTSLESSDCESLDSSNSGFGPEEDTAYLDGVSLPDFELLSDPEDEHLCANLMQLLQESLAQARLGSRRPARLLMPSQLVSQVGKELLRLAYSEPCGLRGALLDVCVEQGKSCHSVGQLALDPSLVPTFQLTLVLRLDSRLWPKIQGLFSSANSPFLPGFSQSLTLSTGFRVIKKKLYSSEQLLIEEC
Take B5: the binding result was “binds” in the assay with hRTP801 (human), Q9NX09 [7] and “binds” with hRTP801 (human), Q9NX09 [8].
